{"source": "the supplement of paper PMC5355238", "note": "Where a name gives a salt, the structure may show the parent alone. The list shows a part of the results. Most values lie at the level of the controls, where differences are scatter.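 Using flow cytometry, the assay measures the median γH2AX antibody signal in S-phase Reh cells (a human leukemia line). Each score is the number of standard deviations from the median difference of paired plate sets. Candidate hits scored above 2.5; compounds scoring below -2 lowered MK1775-induced damage.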", "data": [{"test_system": "Reh", "test": "Z' of S-phase gammaH2AX difference (drug + MK1775 minus drug alone) (Z-score); higher = stronger synergistic S-phase DNA damage with MK1775", "settings": "MK1775 concentration 400 nM; first compound 10 µM; 4 h", "values": [{"smiles": "COc1ccc2c(c1)[C@@]13CCCC[C@H]1[C@@H](C2)NCC3", "note": "[3-Methoxy-morphanin hydrochloride] + C=CCn1c(=O)c2cnc(Nc3ccc(N4CCN(C)CC4)cc3)nc2n1-c1cccc(C(C)(C)O)n1 [MK1775]", "Z' of S-phase gammaH2AX difference (Z-score)": "inactive: -0.0243"}, {"smiles": "COc1cc2c(c(OC)c1OC)-c1ccc(OC)c(=O)cc1[C@@H](NC(C)=O)CC2", "note": "[Colchicine] + C=CCn1c(=O)c2cnc(Nc3ccc(N4CCN(C)CC4)cc3)nc2n1-c1cccc(C(C)(C)O)n1 [MK1775]", "Z' of S-phase gammaH2AX difference (Z-score)": "inactive: -0.0367"}, {"smiles": "CC(C)C1CNC(C(=O)O)C1CC(=O)O", "note": "(centres undefined) [Dihydrokainic acid] + C=CCn1c(=O)c2cnc(Nc3ccc(N4CCN(C)CC4)cc3)nc2n1-c1cccc(C(C)(C)O)n1 [MK1775]", "Z' of S-phase gammaH2AX difference (Z-score)": "inactive: -0.211"}, {"smiles": "CC[C@@H](CO)NC(=O)[C@@H]1C=C2c3cccc4c3c(cn4C)C[C@H]2N(C)C1", "note": "[Methysergide maleate] + C=CCn1c(=O)c2cnc(Nc3ccc(N4CCN(C)CC4)cc3)nc2n1-c1cccc(C(C)(C)O)n1 [MK1775]", "Z' of S-phase gammaH2AX difference (Z-score)": "inactive: -0.155"}, {"smiles": "CC(N)C(O)c1ccc(O)c(O)c1", "note": "(single isomer, unassigned; (-)) [(-)-alpha-Methylnorepinephrine] + C=CCn1c(=O)c2cnc(Nc3ccc(N4CCN(C)CC4)cc3)nc2n1-c1cccc(C(C)(C)O)n1 [MK1775]", "Z' of S-phase gammaH2AX difference (Z-score)": "inactive: 0.789"}, {"smiles": "C/C=C(/C)C(=O)O[C@H]1C(C)=C2[C@H]([C@@H]1OC(=O)CCCCCCC)[C@@](C)(OC(C)=O)C[C@H](OC(=O)CCC)[C@@]1(O)[C@H]2OC(=O)[C@@]1(C)O", "note": "[Thapsigargin] + C=CCn1c(=O)c2cnc(Nc3ccc(N4CCN(C)CC4)cc3)nc2n1-c1cccc(C(C)(C)O)n1 [MK1775]", "Z' of S-phase gammaH2AX difference (Z-score)": "inactive: -2.59"}, {"smiles": "C[C@]12CC[C@@H](O)C[C@@H]1CC[C@@H]1[C@@H]2CC[C@]2(C)[C@@H](C(=O)CO)CC[C@@H]12", "note": "[3-alpha,21-Dihydroxy-5-alpha-pregnan-20-one] + C=CCn1c(=O)c2cnc(Nc3ccc(N4CCN(C)CC4)cc3)nc2n1-c1cccc(C(C)(C)O)n1 [MK1775]", "Z' of S-phase gammaH2AX difference (Z-score)": "inactive: 0.364"}, {"smiles": "c1ccc2c(c1)OCC(C1=NCCN1)O2", "note": "(centres undefined) [Idazoxan hydrochloride] + C=CCn1c(=O)c2cnc(Nc3ccc(N4CCN(C)CC4)cc3)nc2n1-c1cccc(C(C)(C)O)n1 [MK1775]", "Z' of S-phase gammaH2AX difference (Z-score)": "inactive: 2.07"}, {"smiles": "CCCN(CCC)[C@H]1CCc2c(F)ccc(O)c2C1", "note": "[S(-)-UH-301 hydrochloride] + C=CCn1c(=O)c2cnc(Nc3ccc(N4CCN(C)CC4)cc3)nc2n1-c1cccc(C(C)(C)O)n1 [MK1775]", "Z' of S-phase gammaH2AX difference (Z-score)": "inactive: 0.0615"}, {"smiles": "CCCN1CCO[C@@H]2c3cc(O)ccc3OC[C@H]21", "note": "[S(+)-PD 128,907 hydrochloride] + C=CCn1c(=O)c2cnc(Nc3ccc(N4CCN(C)CC4)cc3)nc2n1-c1cccc(C(C)(C)O)n1 [MK1775]", "Z' of S-phase gammaH2AX difference (Z-score)": "inactive: -0.582"}, {"smiles": "COC(=O)c1cc2c(cn1)[nH]c1ccccc12", "note": "[Methyl beta-carboline-3-carboxylate] + C=CCn1c(=O)c2cnc(Nc3ccc(N4CCN(C)CC4)cc3)nc2n1-c1cccc(C(C)(C)O)n1 [MK1775]", "Z' of S-phase gammaH2AX difference (Z-score)": "inactive: -0.274"}, {"smiles": "C[C@@H]1O[C@@H](O[C@H]2C[C@@H](O)[C@]3(CO)[C@H]4[C@H](O)C[C@]5(C)[C@@H]([C@@H]6COC(=O)C6)CC[C@]5(O)[C@@H]4CC[C@]3(O)C2)[C@H](O)[C@H](O)[C@H]1O", "note": "[Dihydroouabain] + C=CCn1c(=O)c2cnc(Nc3ccc(N4CCN(C)CC4)cc3)nc2n1-c1cccc(C(C)(C)O)n1 [MK1775]", "Z' of S-phase gammaH2AX difference (Z-score)": "inactive: -0.571"}, {"smiles": "CCCn1c(C)c(C(=O)c2cccc3ccccc23)c2ccccc21", "note": "+ C=CCn1c(=O)c2cnc(Nc3ccc(N4CCN(C)CC4)cc3)nc2n1-c1cccc(C(C)(C)O)n1 [MK1775]", "Z' of S-phase gammaH2AX difference (Z-score)": "inactive: -0.114"}, {"smiles": "O=P1(N(CCCl)CCCl)NCCCO1", "note": "(centres undefined) [Cyclophosphamide monohydrate] + C=CCn1c(=O)c2cnc(Nc3ccc(N4CCN(C)CC4)cc3)nc2n1-c1cccc(C(C)(C)O)n1 [MK1775]", "Z' of S-phase gammaH2AX difference (Z-score)": "inactive: 0.124"}, {"smiles": "CC(=O)OCC1=C(C(=O)[O-])N2C(=O)[C@@H](NC(=O)CCC[C@@H](N)C(=O)[O-])[C@H]2SC1.[Zn+2]", "note": "[Cephalosporin C zinc salt] + C=CCn1c(=O)c2cnc(Nc3ccc(N4CCN(C)CC4)cc3)nc2n1-c1cccc(C(C)(C)O)n1 [MK1775]", "Z' of S-phase gammaH2AX difference (Z-score)": "inactive: -0.494"}, {"smiles": "CN1C(=O)CCS(=O)(=O)C1c1ccc(Cl)cc1", "note": "(centres undefined) [Chlormezanone] + C=CCn1c(=O)c2cnc(Nc3ccc(N4CCN(C)CC4)cc3)nc2n1-c1cccc(C(C)(C)O)n1 [MK1775]", "Z' of S-phase gammaH2AX difference (Z-score)": "inactive: 0.398"}, {"smiles": "O=C(O)[C@@H]1CCN1", "note": "[L-azetidine-2-carboxylic acid] + C=CCn1c(=O)c2cnc(Nc3ccc(N4CCN(C)CC4)cc3)nc2n1-c1cccc(C(C)(C)O)n1 [MK1775]", "Z' of S-phase gammaH2AX difference (Z-score)": "inactive: 0.147"}, {"smiles": "O=C(O)Cc1cnc[nH]1", "note": "[Imidazole-4-acetic acid hydrochloride] + C=CCn1c(=O)c2cnc(Nc3ccc(N4CCN(C)CC4)cc3)nc2n1-c1cccc(C(C)(C)O)n1 [MK1775]", "Z' of S-phase gammaH2AX difference (Z-score)": "inactive: -0.216"}, {"smiles": "COc1ccc2c(c1OC)C(=O)OC2C1c2cc3c(cc2CCN1C)OCO3", "note": "(single isomer, unassigned; (+)) [(+)-Hydrastine] + C=CCn1c(=O)c2cnc(Nc3ccc(N4CCN(C)CC4)cc3)nc2n1-c1cccc(C(C)(C)O)n1 [MK1775]", "Z' of S-phase gammaH2AX difference (Z-score)": "inactive: -0.0899"}, {"smiles": "O=C1C=CC(=O)C=C1", "note": "[p-Benzoquinone] + C=CCn1c(=O)c2cnc(Nc3ccc(N4CCN(C)CC4)cc3)nc2n1-c1cccc(C(C)(C)O)n1 [MK1775]", "Z' of S-phase gammaH2AX difference (Z-score)": "inactive: 0.254"}, {"smiles": "O=C(O)c1cc[c]([Hg][Cl])cc1", "note": "[4-Chloromercuribenzoic acid] + C=CCn1c(=O)c2cnc(Nc3ccc(N4CCN(C)CC4)cc3)nc2n1-c1cccc(C(C)(C)O)n1 [MK1775]", "Z' of S-phase gammaH2AX difference (Z-score)": "inactive: 1.41"}, {"smiles": "CC1=NN=C(c2ccc(N)cc2)c2cc3c(cc2C1)OCO3", "note": "+ C=CCn1c(=O)c2cnc(Nc3ccc(N4CCN(C)CC4)cc3)nc2n1-c1cccc(C(C)(C)O)n1 [MK1775]", "Z' of S-phase gammaH2AX difference (Z-score)": "inactive: 1.16"}, {"smiles": "CC(=O)[C@H]1CC[C@H]2[C@@H]3CC[C@H]4C[C@H](O)CC[C@]4(C)[C@H]3C(=O)C[C@]12C", "note": "[5alpha-Pregnan-3alpha-ol-11,20-dione] + C=CCn1c(=O)c2cnc(Nc3ccc(N4CCN(C)CC4)cc3)nc2n1-c1cccc(C(C)(C)O)n1 [MK1775]", "Z' of S-phase gammaH2AX difference (Z-score)": "inactive: 0.456"}, {"smiles": "CC(=O)c1c(O)c(C)c(O)c(Cc2c(O)c3c(c(C(=O)/C=C/c4ccccc4)c2O)OC(C)(C)C=C3)c1O", "note": "[Rottlerin] + C=CCn1c(=O)c2cnc(Nc3ccc(N4CCN(C)CC4)cc3)nc2n1-c1cccc(C(C)(C)O)n1 [MK1775]", "Z' of S-phase gammaH2AX difference (Z-score)": "inactive: -0.446"}, {"smiles": "COc1ccccc1N1CCNCC1", "note": "[1-(2-Methoxyphenyl)piperazine hydrochloride] + C=CCn1c(=O)c2cnc(Nc3ccc(N4CCN(C)CC4)cc3)nc2n1-c1cccc(C(C)(C)O)n1 [MK1775]", "Z' of S-phase gammaH2AX difference (Z-score)": "inactive: -0.259"}, {"smiles": "C=C1C[C@@H]2[C@H](CC[C@]3(C)C(=O)CC[C@@H]23)[C@@]2(C)C=CC(=O)C=C12", "note": "[Exemestane] + C=CCn1c(=O)c2cnc(Nc3ccc(N4CCN(C)CC4)cc3)nc2n1-c1cccc(C(C)(C)O)n1 [MK1775]", "Z' of S-phase gammaH2AX difference (Z-score)": "inactive: 0.614"}, {"smiles": "C/C(O)=C(\\C#N)C(=O)Nc1cc(Br)ccc1Br", "note": "+ C=CCn1c(=O)c2cnc(Nc3ccc(N4CCN(C)CC4)cc3)nc2n1-c1cccc(C(C)(C)O)n1 [MK1775]", "Z' of S-phase gammaH2AX difference (Z-score)": "inactive: 1.65"}, {"smiles": "CCCC(C)(COC(N)=O)COC(=O)NC(C)C", "note": "(centres undefined) [Carisoprodol] + C=CCn1c(=O)c2cnc(Nc3ccc(N4CCN(C)CC4)cc3)nc2n1-c1cccc(C(C)(C)O)n1 [MK1775]", "Z' of S-phase gammaH2AX difference (Z-score)": "inactive: 0.117"}, {"smiles": "C[C@@]12C(=O)OC(=O)[C@]1(C)[C@H]1CC[C@@H]2O1", "note": "[Cantharidin] + C=CCn1c(=O)c2cnc(Nc3ccc(N4CCN(C)CC4)cc3)nc2n1-c1cccc(C(C)(C)O)n1 [MK1775]", "Z' of S-phase gammaH2AX difference (Z-score)": "inactive: 1.5"}, {"smiles": "C[C@]12CCC(=O)C=C1CC[C@@H]1[C@@H]2CC[C@]2(C)C(=O)CC[C@@H]12", "note": "[4-Androstene-3,17-dione] + C=CCn1c(=O)c2cnc(Nc3ccc(N4CCN(C)CC4)cc3)nc2n1-c1cccc(C(C)(C)O)n1 [MK1775]", "Z' of S-phase gammaH2AX difference (Z-score)": "inactive: 0.287"}, {"smiles": "NC1CCc2cc(O)c(O)cc2C1", "note": "(centres undefined) [6,7-ADTN hydrobromide] + C=CCn1c(=O)c2cnc(Nc3ccc(N4CCN(C)CC4)cc3)nc2n1-c1cccc(C(C)(C)O)n1 [MK1775]", "Z' of S-phase gammaH2AX difference (Z-score)": "inactive: 0.615"}, {"smiles": "C[C@H]1OC[C@@H](C[N+](C)(C)C)O1", "note": "[(+)-cis-Dioxolane iodide] + C=CCn1c(=O)c2cnc(Nc3ccc(N4CCN(C)CC4)cc3)nc2n1-c1cccc(C(C)(C)O)n1 [MK1775]", "Z' of S-phase gammaH2AX difference (Z-score)": "inactive: -0.421"}, {"smiles": "c1ccc2sc(C3(N4CCCCC4)CCCCC3)cc2c1", "note": "[BTCP hydrochloride] + C=CCn1c(=O)c2cnc(Nc3ccc(N4CCN(C)CC4)cc3)nc2n1-c1cccc(C(C)(C)O)n1 [MK1775]", "Z' of S-phase gammaH2AX difference (Z-score)": "inactive: -0.344"}, {"smiles": "N#C/C(=C\\c1ccc(O)c(O)c1)C(N)=S", "note": "[Tyrphostin 47] + C=CCn1c(=O)c2cnc(Nc3ccc(N4CCN(C)CC4)cc3)nc2n1-c1cccc(C(C)(C)O)n1 [MK1775]", "Z' of S-phase gammaH2AX difference (Z-score)": "inactive: -0.39"}]}]}
